The target of assay [1] is SBP-EGFP-tagged δ-opioid receptor (DOR) of DOR-RUSH HeLa cells (human) (UniProt P41143). Briefly: co-IP.
Assay [2] has as its target His-tagged mu-opioid receptor (MOR) co-expressed in Sf9 cells (UniProt P35372). Briefly: pull-down + SEC.

These are yes or no findings as the source states them, for the method shown. Binding seen in cells or lysates may run through a third protein. Some binding calls cover weakened binding; strength is not graded here. For some assays here: Tags and fused reporters may be left off the sequences shown.

B1: cornichon homolog 1 (CNIH1), endogenous in HeLa cells (protein, UniProt O95406 1-144)
chain: MAFTFAAFCYMLALLLTAALIFFAIWHIIAFDELKTDYKNPIDQCNTLNPLVLPEYLIHAFFCVMFLCAAEWLTLGLNMPLLAYHIWRYMSRPVMSGPGLYDPTTIMNADILAYCQKEGWCKLAFYLLAFFYYLYGMIYVLVSS
In the case of B1, the binding entry in assay [1] is reported as “binds”.

B2: Strep-tagged CNIH1 co-expressed in Sf9 cells (protein, UniProt O95406 1-144)
chain: B1 chain
For the molecule B2, in assay [2], the binding entry is “binds”.
